Experimental data from PubChem BioAssay AID504834 (National Center for Advancing Translational Sciences (NCATS), 2011).
In all, about 320,000 compounds went through this assay and about 22,000 (6.9%) were called active. The inconclusive results got no clear call from the source; some entries with a clear call stand among them for comparison. The call rests on the fitted dose curve; in most records, active means well fitted inhibition curve with a large enough effect; inconclusive means small, poorly fitted or top-dose-only effect, or another doubt; inactive means no such curve, though single readings can be large or run the other way. A potency beside an inconclusive call is a rough fit, not a confirmed value.

Assay: Primary qHTS for delayed death inhibitors of the malarial parasite plastid, 96 hour incubation
Details: P. falciparum luciferase reporter growth; series mostly up to 28.7 µM; activity change, negative = inhibition: at the top concentration
Method in brief: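 Parasite growth measured via integrated firefly luciferase reporter in P. falciparum. Infected erythrocytes at 2% hematocrit, 0.05% parasitemia final were treated 96 hours at 37 C under 5% CO2, and luminescence was read.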
On the % scale 0 is the no-effect control and ±100 the full control effect; potency means the concentration at half of the fitted maximal effect.

| Structure (SMILES) | Potency | activity change, negative = inhibition |
| --- | --- | --- |
| Fc1cccc(-c2c(-c3ccccc3)ncc3cc(F)ccc23)c1 | inconclusive: 0.0037 µM [inhibitor, full curve, poor fit] |  |
| Cc1nnc2sc(-c3ccc(NC(=O)CSc4ccc(Cl)cc4)cc3)nn12 | inconclusive: 10.4 µM [inhibitor, partial curve] |  |
| O=C(O)c1cccc(Nc2nc3ccccc3nc2NS(=O)(=O)c2cccs2)c1 | inconclusive: 18.5 µM [inhibitor, partial curve, poor fit] |  |
| Cc1cc(=O)oc2cc(OCC(=O)N3CCN(c4ccc(F)cc4)CC3)c(Cl)cc12 | inconclusive: 18.5 µM [inhibitor, single point] |  |
| NNC(=O)Cn1c(COc2ccc(Cl)cc2)nc2ccccc21 | inconclusive: 10.4 µM [inhibitor, partial curve] |  |
| O=C1CS/C(=N/N=C\c2ccn[nH]2)N1 | active: 1.85 µM |  |
| CN(C1=NC(=O)C(CC(=O)Nc2ccc(Br)cc2)S1)c1ccc(O)cc1 (stereo not given) | active: 5.22 µM |  |
| COC(=O)c1ccc(Cn2nc(C)c([N+](=O)[O-])c2C)o1 | active: 13.1 µM |  |
| CC1(C)SC2C(NC(=O)C(C(=O)O)c3ccccc3)C(=O)N2C1C(=O)O (stereo not given) |  | inactive: 1.36% |
| CC(=O)c1oc2ccccc2c1N |  | inactive: 84.9% |
| Cc1ccc2oc(=O)n(CC(=O)N3CCOCC3)c2c1 |  | inactive: 18% |
| CNc1c(NS(=O)(=O)c2ccc(Br)cc2)c(=O)oc2ccccc12 |  | inactive: -17.9% |
| c1ccc(-c2cnnc(N3CCOCC3)n2)cc1 |  | inactive: -14.5% |
| COc1ccc(CCNC(=O)CSc2nc(C)nc3c2oc2ccccc23)cc1OC | active: 5.86 µM |  |
| COc1ccc(CCCc2nnc(SCC(=O)Nc3ncc(C)s3)o2)cc1 | inconclusive: 14.7 µM [inhibitor, single point] |  |
| CN1C(=O)c2ccc(C(=O)Nc3ccccc3O)cc2C1=O | inconclusive: 3.29 µM [inhibitor, partial curve, poor fit] |  |
| COc1ccc(CN2CCN(Cc3ccco3)CC2)cc1OC | inconclusive: 18.5 µM [inhibitor, single point] |  |
| Cc1ccc(-c2[nH]c3cc(C(=O)NCCCn4ccnc4)ccc3c(=O)c2O)cc1 | inconclusive: 18.5 µM [inhibitor, single point] |  |
| CSc1ncccc1C(=O)OCC(=O)NC1CCCCC1 |  | inactive: 30.7% |
| O=S1(=O)N=C(N(CCO)/N=C/c2ccc(Br)cc2)c2ccccc21 |  | inactive: -12.8% |
| COC(=O)c1cc(N2C(=O)C3C4C=CC(CC4)C3C2=O)ccc1Cl (stereo not given) | inconclusive: 2.62 µM [inhibitor, partial curve, poor fit] |  |
| COCCCNC(=O)Cn1ncc2ccsc2c1=O | inconclusive: 14.7 µM [inhibitor, partial curve, poor fit] |  |
| Cc1ccc(S(=O)(=O)N2CCC(=O)N(C(COCc3cccc(C)c3)C(C)C)CC2)cc1 (stereo not given) | active: 13.1 µM |  |
| CC(=O)N(CCc1ccccc1)Cc1cc2cc(C)ccc2[nH]c1=O | inconclusive: 10.4 µM [inhibitor, partial curve, poor fit] |  |

| Structure (SMILES) | Potency | activity change, negative = inhibition |
| --- | --- | --- |
| COc1cccc(/C=C2\SC(=S)N(CCC(=O)NC3C=CS(=O)(=O)C3)C2=O)c1 (stereo not given) | inconclusive: 0.0033 µM [inhibitor, full curve] |  |
| COc1ccc(C2(CNC(C)=O)CCCC2)cc1OC | inconclusive: 10.4 µM [inhibitor, single point] |  |
| Cc1ccc(CNC(=O)C2CCN(S(=O)(=O)N3CCC4(CC3)OCCO4)CC2)cc1 | inconclusive: 18.5 µM [inhibitor, single point] |  |
| COC(=O)c1cnc(Oc2ccc(NC(=O)NC(=O)c3ccccc3Cl)cc2)cc1C(F)(F)F |  | inactive: 40.8% |
| COc1ccc(CNc2oc(C)nc2C#N)cc1 |  | inactive: -23.2% |
| CCN(CC(=O)NCc1cccs1)S(=O)(=O)c1ccccc1Cl |  | inactive: 2.33% |
| CC(C)COC(=O)n1c(SCC(N)=O)nc2ccccc21 | inconclusive: 2.33 µM [inhibitor, partial curve, poor fit] |  |
| CCOC(=O)c1c[nH]c(=S)n1C |  | inactive: 0.704% |
| COc1ccc(CCNC(=O)C(=O)NCc2ccccc2C)cc1OC | inconclusive: 18.5 µM [inhibitor, single point] |  |
| CC12C(=O)N(CCC(=O)O)C(=O)C1C1C=CC2C1 (stereo not given) | inconclusive: 18.5 µM [inhibitor, single point] |  |
| Cc1cccc(Cc2nnc(CCC(=O)N(CC3CC3)CC3CCCO3)o2)c1 (stereo not given) | inconclusive: 4.15 µM [inhibitor, partial curve, poor fit] |  |
| O=C(CSc1nnc(-c2ccccn2)o1)Nc1ccc(F)cc1 |  | inactive: 13% |
| CCCCc1ccc(NC(=O)CSc2nc(=O)n(CCN(CC)CC)c3c2CCCC3)cc1 | active: 2.08 µM |  |
| CC(=O)Nc1cc(C(=O)NCc2ccco2)ccc1Sc1ccc(F)cc1 | inconclusive: 5.86 µM [inhibitor, partial curve, poor fit] |  |
| COc1ccc(N2CCN(Cc3nc4c(c(=O)[nH]c(=O)n4C)n3Cc3cccc(Cl)c3)CC2)cc1 | inconclusive: 1.65 µM [inhibitor, full curve] |  |
| Cc1ccc2nc3c(cc2c1)c(NC(=O)c1ccco1)nn3CC(C)C | inconclusive: 18.5 µM [inhibitor, single point] |  |
| CC1(C)CC(=O)C(CC2=C(O)CC(C)(C)CC2=O)=C(O)C1 | inconclusive: 1.47 µM [inhibitor, partial curve, poor fit] |  |
| COc1cc(/C=C/c2cccc[n+]2C)ccc1OCC(=O)Nc1cccc(Cl)c1 |  | inactive: -8.23% |
| O=C(NCCc1ccc(Cl)cc1)/C(=C/c1cccnc1)NC(=O)c1ccccc1 | inconclusive: 13.1 µM [inhibitor, partial curve, poor fit] |  |
| CCOc1ccc2[nH]c(=O)c(CN(Cc3ccco3)C(CC)c3nnnn3Cc3ccccc3)cc2c1 (stereo not given) | inconclusive: 18.5 µM [inhibitor, single point] |  |
| Cc1nc2ccccc2n1S(=O)(=O)c1cc(C(=O)O)ccc1Cl |  | inactive: 0.203% |
| CCOc1ccccc1-n1cnc2cc(C(=O)NCc3ccco3)ccc21 | inconclusive: 0.522 µM [inhibitor, full curve, poor fit] |  |
| COc1ccc(NC(=O)c2cc(C)nc3ccccc23)cc1S(=O)(=O)Nc1ccccc1Cl | inconclusive: 11.7 µM [inhibitor, single point] |  |
| O=C(N/N=C/c1ccc(O)cc1)c1cncc(Br)c1 | inconclusive: 2.94 µM [inhibitor, single point] |  |

| Structure (SMILES) | Potency | activity change, negative = inhibition |
| --- | --- | --- |
| COc1ccc(O)c(C(=O)c2cc(C#N)c(=O)n(CCN3CCOCC3)c2)c1 | inconclusive: 18.5 µM [inhibitor, single point] |  |
| Cc1ccc(NS(=O)(=O)c2ccc3c(c2)N(C)CCO3)cc1 | inconclusive: 4.15 µM [inhibitor, partial curve] |  |
| CCCCCCCCCCCCC(NC(C)=O)(C(=O)OCC)C(=O)OCC | inconclusive: 18.5 µM [inhibitor, single point] |  |
| CCOc1ccccc1NC(=S)N(CCC(C)C)C1CCN(C(C)=O)CC1 | inconclusive: 11.7 µM [inhibitor, single point] |  |
| CCOC(=O)CCCCCN(Cc1ccccc1)S(=O)(=O)c1ccc([N+](=O)[O-])cc1 | inconclusive: 13.1 µM [inhibitor, single point] |  |
| COc1ccccc1NC(=S)NC1CCCCCC1 | inconclusive: 18.5 µM [inhibitor, single point] |  |
| O=[N+]([O-])c1cc(CN2CCCC2)c2cccnc2c1O | inconclusive: 18.5 µM [inhibitor, single point] |  |
| CCOc1cc(Br)c(CC(=O)O)cc1OCC |  | inactive: -7.11% |
| COc1cc(/C=N/NC(=O)c2cc(C34CC5CC(CC(C5)C3)C4)[nH]n2)ccc1O | active: 11.7 µM |  |
| N#Cc1c(N)c(C#N)c(-c2ccc3c(c2)OCO3)c2c1CCCC2 | inconclusive: 6.57 µM [inhibitor, partial curve] |  |
| Cc1ccc(CNS(=O)(=O)c2c(C(=O)N3CCCCCC3)c(C)n(C)c2C)cc1 |  | inactive: 4.2% |
| COC(=O)c1ccc(COc2ccc(CNCc3ccc(Cl)cc3)cc2)cc1 |  | inactive: 94.7% |
| Cc1cc(N/N=C/c2ccccc2)nc(NCc2ccccc2)n1 | active: 1.47 µM |  |
| Cn1c(=O)c2sccc2n2c(CCCC(=O)NCc3ccco3)nnc12 | inconclusive: 13.1 µM [inhibitor, single point] |  |
| COc1ccc(S(=O)(=O)N2CCCCC2)cc1 | inconclusive: 4.65 µM [inhibitor, partial curve, poor fit] |  |
| CCOC(=O)C(Cc1ccc(N)cc1)N1C(=O)c2ccccc2C1=O (stereo not given) | inconclusive: 0.262 µM [inhibitor, full curve, poor fit] |  |
| CCOc1ccc(Cl)cc1C1=CC(=O)C[C@H](c2ccc(OC)cc2)C1 | inconclusive: 16.5 µM [inhibitor, single point] |  |
| O=C(Cc1cccc2ccccc12)N/N=C/c1ccc(O)c([N+](=O)[O-])c1 | inconclusive: 0.233 µM [inhibitor, full curve, poor fit] |  |
| O=C(CN1CCN(c2ccc(O)cc2)CC1)Nc1cc([N+](=O)[O-])ccc1Cl | inconclusive: 10.4 µM [inhibitor, single point] |  |
| CC(C)(C)N1C(=O)[C@H]2[C@@H](c3ccc(Br)cc3)N3C(=O)N(c4cccc(F)c4)C(=O)[C@@]3(C)[C@H]2C1=O |  | inactive: -0.105% |
| O=C(CN1CC(c2ccccc2)CC1=O)Nc1ccc(F)cc1 (stereo not given) | inconclusive: 10.4 µM [inhibitor, single point] |  |
| CC12CN(NC(=O)c3ccccc3F)C3(C#N)CC1CCC23C (stereo not given) | inconclusive: 4.65 µM [inhibitor, partial curve] |  |

An excerpt of these results, with bars between the fields:
Structure (SMILES) | Potency | activity change, negative = inhibition
Cc1ccc(NS(=O)(=O)c2ccc3c(c2)N(C)CCO3)cc1 | inconclusive: 4.15 µM [inhibitor, partial curve] | 
CCCCCCCCCCCCC(NC(C)=O)(C(=O)OCC)C(=O)OCC | inconclusive: 18.5 µM [inhibitor, single point] | 
CCOc1ccccc1NC(=S)N(CCC(C)C)C1CCN(C(C)=O)CC1 | inconclusive: 11.7 µM [inhibitor, single point] | 
CCOC(=O)CCCCCN(Cc1ccccc1)S(=O)(=O)c1ccc([N+](=O)[O-])cc1 | inconclusive: 13.1 µM [inhibitor, single point] | 
COc1ccccc1NC(=S)NC1CCCCCC1 | inconclusive: 18.5 µM [inhibitor, single point] | 
O=[N+]([O-])c1cc(CN2CCCC2)c2cccnc2c1O | inconclusive: 18.5 µM [inhibitor, single point] | 
CCOc1cc(Br)c(CC(=O)O)cc1OCC |  | inactive: -7.11%
COc1cc(/C=N/NC(=O)c2cc(C34CC5CC(CC(C5)C3)C4)[nH]n2)ccc1O | active: 11.7 µM | 
N#Cc1c(N)c(C#N)c(-c2ccc3c(c2)OCO3)c2c1CCCC2 | inconclusive: 6.57 µM [inhibitor, partial curve] | 
Cc1ccc(CNS(=O)(=O)c2c(C(=O)N3CCCCCC3)c(C)n(C)c2C)cc1 |  | inactive: 4.2%
COC(=O)c1ccc(COc2ccc(CNCc3ccc(Cl)cc3)cc2)cc1 |  | inactive: 94.7%
Cc1cc(N/N=C/c2ccccc2)nc(NCc2ccccc2)n1 | active: 1.47 µM | 
Cn1c(=O)c2sccc2n2c(CCCC(=O)NCc3ccco3)nnc12 | inconclusive: 13.1 µM [inhibitor, single point] | 
COc1ccc(S(=O)(=O)N2CCCCC2)cc1 | inconclusive: 4.65 µM [inhibitor, partial curve, poor fit] | 
CCOC(=O)C(Cc1ccc(N)cc1)N1C(=O)c2ccccc2C1=O (stereo not given) | inconclusive: 0.262 µM [inhibitor, full curve, poor fit] | 
